Test results taken from patent US20030162228A1.
These are yes or no findings as the source states them, for the method shown. For some assays here: In cells and extracts the contact can be indirect. Some entries that bind do so weakly or less than the wild type. Tags and fused reporters may be left off the sequences shown.

T1: TAK1 expressed from yeast 2-hybrid expression vector pBTMHu11F (Homo sapiens (Human)) (UniProt O43318)
T1 sequence: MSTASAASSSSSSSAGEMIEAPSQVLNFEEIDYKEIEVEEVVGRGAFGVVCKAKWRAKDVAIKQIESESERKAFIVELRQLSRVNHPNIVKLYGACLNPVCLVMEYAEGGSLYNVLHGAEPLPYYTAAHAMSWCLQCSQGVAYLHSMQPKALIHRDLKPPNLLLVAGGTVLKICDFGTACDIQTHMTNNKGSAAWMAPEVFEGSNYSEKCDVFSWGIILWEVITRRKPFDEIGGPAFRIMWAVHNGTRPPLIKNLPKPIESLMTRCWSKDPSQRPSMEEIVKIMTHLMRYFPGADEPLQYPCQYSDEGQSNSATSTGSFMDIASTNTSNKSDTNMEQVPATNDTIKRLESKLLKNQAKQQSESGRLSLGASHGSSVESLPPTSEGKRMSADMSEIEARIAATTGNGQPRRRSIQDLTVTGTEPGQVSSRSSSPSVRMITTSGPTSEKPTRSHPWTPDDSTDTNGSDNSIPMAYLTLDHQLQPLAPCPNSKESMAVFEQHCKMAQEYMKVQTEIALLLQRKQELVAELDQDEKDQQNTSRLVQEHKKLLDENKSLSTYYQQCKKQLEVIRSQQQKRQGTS

T2: recombinant human TAK1-6×His polypeptide (human) (UniProt O43318)
T2 sequence: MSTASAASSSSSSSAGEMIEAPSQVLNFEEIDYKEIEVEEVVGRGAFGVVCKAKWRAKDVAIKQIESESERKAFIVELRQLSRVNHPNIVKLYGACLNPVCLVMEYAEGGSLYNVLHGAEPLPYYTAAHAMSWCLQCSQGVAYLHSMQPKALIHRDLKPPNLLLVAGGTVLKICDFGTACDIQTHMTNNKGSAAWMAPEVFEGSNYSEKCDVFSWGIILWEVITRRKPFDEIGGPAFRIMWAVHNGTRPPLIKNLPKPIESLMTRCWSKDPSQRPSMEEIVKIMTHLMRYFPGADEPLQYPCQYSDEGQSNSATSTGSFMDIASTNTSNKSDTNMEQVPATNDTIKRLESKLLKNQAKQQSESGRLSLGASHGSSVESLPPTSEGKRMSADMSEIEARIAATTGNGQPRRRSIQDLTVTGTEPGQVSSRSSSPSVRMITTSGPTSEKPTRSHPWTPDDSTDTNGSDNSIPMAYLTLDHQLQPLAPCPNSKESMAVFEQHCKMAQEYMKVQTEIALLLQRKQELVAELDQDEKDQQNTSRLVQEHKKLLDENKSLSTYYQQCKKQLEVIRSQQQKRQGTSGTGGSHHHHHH


Tests used:
[1] = target: T1, TAK1 expressed from yeast 2-hybrid expression vector pBTMHu11F (Homo sapiens (Human)); assay: yeast 2-hybrid method
[2] = target: T2, recombinant human TAK1-6×His polypeptide (human); assay: competition in co-immunoprecipitation with anti-TAK1 antibody; the blocked ligand is FLAG-TAB1; band densities of FLAG-TAB1 corrected for TAK1
[3] = target: T2, recombinant human TAK1-6×His polypeptide (human); assay: competition in co-immunoprecipitation of FLAG-TAB1 with TAK1-6×His; peptide at two concentrations

| binding [1] | binding [2] | binding [3] | Binder |
| --- | --- | --- | --- |
| binds |  |  | PYVDFAEFYRLWSVDHGEQSVVTAP (peptide, not shown: large carriers) [TAB1C25, fusion with the GAL4 transcription activated domain (pGAD-TAB1C25)] |
| binds |  |  | DGRVEPYVDFAEFYRLWSVDHGEQSVVTAP (peptide, not shown: large carriers) [TAB1C30, fusion with the GAL4 transcription activated domain (pGAD-TAB1C30)] |
| binds |  |  | LPPGEDGRVEPYVDFAEFYRLWSVDHGEQSVVTAP (peptide, not shown: large carriers) [TAB1C35, fusion with the GAL4 transcription activated domain (pGAD-TAB1C35)] |
|  | binds | binds | CVEPYVDFAEFYRGRK [peptide TAB1C-1] |
